Reference: patent US20260240820A1, “METHOD FOR CONTROLLING MEMBRANE POTENTIAL-DEPENDENT ION CHANNEL THROUGH TYPE I TASTE RECEPTORS (T1RS)” (ION CHAT RESEARCH CORPORATE, priority 2022, published 2026)

Assays:
Nav1.5 = assay: Patch-clamp (voltage clamp) recording of VGSC current in HEK cells stably expressing Nav1.5
[1] = system: VGSC of SH-SY5Y cells (Nav1.7, Nav1.2, Nav1.3); assay: Patch-clamp recording of VGSC current in differentiated SH-SY5Y cells; assay type: cell-based, human
From the text: Furthermore, the inventors focused on the relationship between taste receptors, particularly the sweet or umami receptors containing the T1R3 subunit, which are widely expressed in the brain and nervous system, including the hippocampus and cortex. They used human neuroblastoma cells (SH-SY5Y) that functionally express Nav1.2, Nav1.3, and Nav1.7 (as reported in non-patent literature 8), as well as HEK cells stably expressing Nav1.5 (with endogenous expression of T1R1, T1R2, and T1R3). They observed the effects of taste stimuli on sodium channel activation. By reducing the expression of T1R1 and T1R3 genes using silencing vectors, they confirmed that the effects on sodium channel currents induced by taste stimuli act through taste receptor GPCRs.
The SH-SY5Y cell culture medium was prepared by mixing DMEM (Sigma-Aldrich) and F-12 (Sigma-Aldrich) in equal proportions. To induce neuronal-like differentiation, the medium contained 1% FBS (BioWest), 5% 40 mM L-Glutamine (Fuji Film), and 1% MEM non-essential amino acids (Wako Pure Chemical Industries). During differentiation, SH-SY5Y cells were cultured for at least 5 days with the addition of 10 μM/ml retinoic acid (Fuji Film). In this document, “SH-SY5Y cells” refer to the SH-SY5Y cell line differentiated into neuronal-like cells.

Molecule	Hill Slope (Nav1.5; prepulse −70 mV)	Hill Slope (Nav1.5; prepulse −100 mV)	Hill Slope ([1]; prepulse −60 mV)	Hill Slope ([1]; prepulse −80 mV)	Hill Slope (Nav1.5; prepulse −80 mV)	Hill Slope (Nav1.5; prepulse −120 mV)
Aspartame	1.9	4.2				
CC(Oc1ccc(Cl)cc1Cl)C(=O)O (stereo not shown) [dichlorprop, 2-(2,4-dichlorophenoxy) propanoic acid]		1.9	2.5	2.27	1.6	1.7
